Results are given in words; binding and its absence hold for the method and conditions named. In cells and extracts the contact can be indirect. Some binding calls cover weakened binding; strength is not graded here. Sequences can lack the tags named with a protein.
Assays:
Assay in all cases: FRET or BRET; BRET in intact S2-R+ cells between C-terminally GFP10-tagged truncated Smo variants (300 ng) and Cos2-RLucII (75 ng), myc-Fu (75 ng) co-transfected; cells treated with control (beta-gal), gprk2 or smo 3'UTR dsRNA, without or with myc-Gprk2; net BRET
[1] = molecular target: T1, Smo^Δ625 (Drosophila Smoothened amino acids 1-625), C-terminally tagged with GFP10 (Drosophila) (UniProt P91682)
T1 sequence: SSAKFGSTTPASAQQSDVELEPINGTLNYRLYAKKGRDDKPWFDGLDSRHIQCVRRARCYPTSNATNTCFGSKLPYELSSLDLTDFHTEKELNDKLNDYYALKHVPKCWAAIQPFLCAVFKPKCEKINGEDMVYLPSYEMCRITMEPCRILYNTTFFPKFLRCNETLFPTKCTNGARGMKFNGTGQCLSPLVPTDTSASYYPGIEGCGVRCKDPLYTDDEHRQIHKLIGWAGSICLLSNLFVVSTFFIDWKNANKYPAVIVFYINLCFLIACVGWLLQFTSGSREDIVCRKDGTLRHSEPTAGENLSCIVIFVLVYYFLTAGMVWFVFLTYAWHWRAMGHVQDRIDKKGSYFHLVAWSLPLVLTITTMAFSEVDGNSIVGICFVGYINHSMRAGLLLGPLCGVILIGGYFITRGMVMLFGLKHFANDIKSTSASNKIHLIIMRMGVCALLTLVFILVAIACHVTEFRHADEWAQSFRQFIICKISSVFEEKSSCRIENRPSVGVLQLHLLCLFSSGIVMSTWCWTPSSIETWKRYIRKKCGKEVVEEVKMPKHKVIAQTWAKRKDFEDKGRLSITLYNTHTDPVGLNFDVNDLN

[2] = molecular target: T2, Smo^Δ651 (Drosophila Smoothened amino acids 1-651), C-terminally tagged with GFP10 (Drosophila) (UniProt P91682)
T2 sequence: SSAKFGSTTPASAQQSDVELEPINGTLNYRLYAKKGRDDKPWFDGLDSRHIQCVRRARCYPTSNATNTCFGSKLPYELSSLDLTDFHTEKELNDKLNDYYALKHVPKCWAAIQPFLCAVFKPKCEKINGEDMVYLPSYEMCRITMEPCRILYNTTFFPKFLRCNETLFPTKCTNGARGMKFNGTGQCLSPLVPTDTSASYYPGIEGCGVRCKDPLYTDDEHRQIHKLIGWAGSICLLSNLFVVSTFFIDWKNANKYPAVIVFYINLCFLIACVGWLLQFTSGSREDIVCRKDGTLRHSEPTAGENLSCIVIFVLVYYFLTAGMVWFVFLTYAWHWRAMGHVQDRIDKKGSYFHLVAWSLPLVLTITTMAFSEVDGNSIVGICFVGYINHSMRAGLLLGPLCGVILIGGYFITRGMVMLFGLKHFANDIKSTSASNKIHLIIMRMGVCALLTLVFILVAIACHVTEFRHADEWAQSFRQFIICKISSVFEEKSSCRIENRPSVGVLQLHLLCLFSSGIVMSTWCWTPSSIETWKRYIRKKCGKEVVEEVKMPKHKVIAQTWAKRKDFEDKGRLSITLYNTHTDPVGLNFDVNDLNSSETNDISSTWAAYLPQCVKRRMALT

[3] = molecular target: T3, Smo^core (Drosophila Smoothened amino acids 1-663), C-terminally tagged with GFP10 (Drosophila) (UniProt P91682)
T3 sequence: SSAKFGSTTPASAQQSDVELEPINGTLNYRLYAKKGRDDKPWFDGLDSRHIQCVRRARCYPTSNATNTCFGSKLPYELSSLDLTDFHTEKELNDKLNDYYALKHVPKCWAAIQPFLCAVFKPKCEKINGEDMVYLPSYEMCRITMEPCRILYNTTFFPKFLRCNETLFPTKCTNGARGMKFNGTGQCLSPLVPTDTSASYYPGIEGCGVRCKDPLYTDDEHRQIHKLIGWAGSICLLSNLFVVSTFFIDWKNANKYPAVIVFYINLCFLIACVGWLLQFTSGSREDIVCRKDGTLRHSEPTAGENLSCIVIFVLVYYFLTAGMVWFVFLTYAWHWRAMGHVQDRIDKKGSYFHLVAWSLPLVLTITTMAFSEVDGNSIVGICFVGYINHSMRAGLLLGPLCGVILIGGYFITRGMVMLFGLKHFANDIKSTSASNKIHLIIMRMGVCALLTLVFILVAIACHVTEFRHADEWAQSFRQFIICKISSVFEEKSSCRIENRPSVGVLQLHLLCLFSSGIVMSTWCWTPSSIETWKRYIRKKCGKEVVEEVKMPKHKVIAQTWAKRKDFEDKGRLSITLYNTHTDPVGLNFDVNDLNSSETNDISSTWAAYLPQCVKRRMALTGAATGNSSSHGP

binding [1]: no binding
binding [2]: binds
binding [3]: binds
B1: Costal-2 (Cos2), C-terminally tagged with Renilla luciferase II (natural protein, Drosophila, UniProt O16844 1-1201, looked up)
chain: MEIPIQVAVRIFPHRELKDLLRSFGPTEPKKDAQAVDEGADSKDSEAQVPAAEKDNPSISETDPNGNAEQDSAADSKTIPDANGNDSGQKDYPDSAYCVQAIPISASALGLPSALPGGDPMDSIAAGLIQVGPHTVPVTHALPSSSSQEQVYHQTVFPLITLFLEGFDASVVTYGQRGQGKSYTLYGNVQDPTLTDSTEGVVQLCVRDIFSHISLHPERTYAINVGFVEICGGDVCDLLGMGNIHCTNVDAVFHWLQVGLSARQSLPAHTLFTLTLEQQWVSKEGLLQHRLSTASFSDLCGTERCGDQPPGRPLDAGLCMLEQVISTLTDPGLMYGVNGNIPYGQTTLTTLLKDSFGGRAQTLVILCVSPLEEHLPETLGNLQFAFKVQCVRNFVIMNTYSDDNTMIVQPAEPVPESNSSAGPLSQAGPGDNFGLQFAASQWSKLVTNAEGLFSKLIDSKLITEVEKEQIEEWLFLKQECEECLSSTEAMRQQKQLVPILEAEEPEDVNSEAANSESPNSDNENDTDNESHRPDLDDKIESLMEEFRDKTDALILEKHAEYLSKHPKAVMQSQDREIEAQPPEENGDDRKVSIGSRRRSVQPGASLSTAELAMLNRVASQQPPPPIDPESVVDPLESSSGEGIRQAALAAAAATAPIEQLQKKLRKLVAEIEGKQRQLREIEETIQVKQNIIAELVKNSDTRSHAKQRFHKKRAKLEAECDKAKKQLGKALVQGRDQSEIERWTTIIGHLERRLEDLSSMKHIAGESGQKVKKLQQSVGESRKQADDLQKKLRKECKLRCQMEAELAKLRESRETGKELVKAQGSPEQQGRQLKAVQARITHLNHILREKSDNLEEQPGPEQQETLRHEIRNLRGTRDLLLEERCHLDRKLKRDKVLTQKEERKLLECDEAIEAIDAAIEFKNEMITGHRSIDTSDRIQREKGEQMLMARLNRLSTEEMRTLLYKYFTKVIDLRDSSRKLELQLVQLERERDAWEWKERVLSNAVRQARLEGERNAVLLQRQHEMKLTLMLRHMAEETSASSASYGERALAPACVAPPVQASSDFDYDHFYKGGGNPSKALIKAPKPMPTGSALDKYKDKEQRSGRNIFAKFHVLTRYASAAAAGSSGSTAEESTALIESTTTATATTTSTTTTGAVGKVKDKALVSFRPEQLKRLMPAPTATKVTRQKNKIIIQDASRRN
notes: Costal-2 (Cos2), kinesin-like protein, Drosophila; also called Cos2-Luc; Cos2-RLucII; source: S2-R+ cells, transfected (pRmHa3.puro, induced with CuSO4), in intact cells; not shown: RLucII, C-terminal, kept

Reference: PMC4091690, “A Broadly Conserved G-Protein-Coupled Receptor Kinase Phosphorylation Mechanism Controls Drosophila Smoothened Activity” (PLoS Genetics, 2014)
